Two molecules from doi:10.1101/2021.03.26.437179 can be followed below.

This assay addresses T1, BD-PUB26 (Arabidopsis thaliana) (UniProt Q9FXA4).
T1 sequence: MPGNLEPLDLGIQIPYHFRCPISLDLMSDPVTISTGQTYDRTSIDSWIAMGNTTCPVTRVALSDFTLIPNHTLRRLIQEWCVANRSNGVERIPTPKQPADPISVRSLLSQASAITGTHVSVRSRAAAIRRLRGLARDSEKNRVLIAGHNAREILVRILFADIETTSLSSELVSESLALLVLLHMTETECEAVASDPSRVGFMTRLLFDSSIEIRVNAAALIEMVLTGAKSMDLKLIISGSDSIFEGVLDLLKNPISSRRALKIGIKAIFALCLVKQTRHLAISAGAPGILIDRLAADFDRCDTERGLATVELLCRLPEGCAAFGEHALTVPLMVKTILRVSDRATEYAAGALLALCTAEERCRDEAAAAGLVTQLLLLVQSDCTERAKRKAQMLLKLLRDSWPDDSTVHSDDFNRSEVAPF
The experiment in a line: two-hybrid.

These are yes or no findings as the source states them, for the method shown. Some entries that bind do so weakly or less than the wild type. Tags and fused reporters may be left off the sequences shown.

B1: MYB6 (14-61) (domain or fragment, UniProt Q38851 14-61)
chain: KGAWTKEEDQRLVDYIRNHGEGCWRSLPKSAGLLRCGKSCRLRWINYL
Turning to B1, the binding result is “binds”.

B2: MYB6 (67-111) (domain or fragment, UniProt Q38851 67-111)
chain: RGNFTDDEDQIIIKLHSLLGNKWSLIAGRLPGRTDNEIKNYWNTH
As to B2, the binding result is on record as “binds”.
